Here are results for four substances from doi:10.1101/2021.01.27.428282.

The chains behind the UniProt entries cited, without tags or fusion partners.
UniProt Q12888: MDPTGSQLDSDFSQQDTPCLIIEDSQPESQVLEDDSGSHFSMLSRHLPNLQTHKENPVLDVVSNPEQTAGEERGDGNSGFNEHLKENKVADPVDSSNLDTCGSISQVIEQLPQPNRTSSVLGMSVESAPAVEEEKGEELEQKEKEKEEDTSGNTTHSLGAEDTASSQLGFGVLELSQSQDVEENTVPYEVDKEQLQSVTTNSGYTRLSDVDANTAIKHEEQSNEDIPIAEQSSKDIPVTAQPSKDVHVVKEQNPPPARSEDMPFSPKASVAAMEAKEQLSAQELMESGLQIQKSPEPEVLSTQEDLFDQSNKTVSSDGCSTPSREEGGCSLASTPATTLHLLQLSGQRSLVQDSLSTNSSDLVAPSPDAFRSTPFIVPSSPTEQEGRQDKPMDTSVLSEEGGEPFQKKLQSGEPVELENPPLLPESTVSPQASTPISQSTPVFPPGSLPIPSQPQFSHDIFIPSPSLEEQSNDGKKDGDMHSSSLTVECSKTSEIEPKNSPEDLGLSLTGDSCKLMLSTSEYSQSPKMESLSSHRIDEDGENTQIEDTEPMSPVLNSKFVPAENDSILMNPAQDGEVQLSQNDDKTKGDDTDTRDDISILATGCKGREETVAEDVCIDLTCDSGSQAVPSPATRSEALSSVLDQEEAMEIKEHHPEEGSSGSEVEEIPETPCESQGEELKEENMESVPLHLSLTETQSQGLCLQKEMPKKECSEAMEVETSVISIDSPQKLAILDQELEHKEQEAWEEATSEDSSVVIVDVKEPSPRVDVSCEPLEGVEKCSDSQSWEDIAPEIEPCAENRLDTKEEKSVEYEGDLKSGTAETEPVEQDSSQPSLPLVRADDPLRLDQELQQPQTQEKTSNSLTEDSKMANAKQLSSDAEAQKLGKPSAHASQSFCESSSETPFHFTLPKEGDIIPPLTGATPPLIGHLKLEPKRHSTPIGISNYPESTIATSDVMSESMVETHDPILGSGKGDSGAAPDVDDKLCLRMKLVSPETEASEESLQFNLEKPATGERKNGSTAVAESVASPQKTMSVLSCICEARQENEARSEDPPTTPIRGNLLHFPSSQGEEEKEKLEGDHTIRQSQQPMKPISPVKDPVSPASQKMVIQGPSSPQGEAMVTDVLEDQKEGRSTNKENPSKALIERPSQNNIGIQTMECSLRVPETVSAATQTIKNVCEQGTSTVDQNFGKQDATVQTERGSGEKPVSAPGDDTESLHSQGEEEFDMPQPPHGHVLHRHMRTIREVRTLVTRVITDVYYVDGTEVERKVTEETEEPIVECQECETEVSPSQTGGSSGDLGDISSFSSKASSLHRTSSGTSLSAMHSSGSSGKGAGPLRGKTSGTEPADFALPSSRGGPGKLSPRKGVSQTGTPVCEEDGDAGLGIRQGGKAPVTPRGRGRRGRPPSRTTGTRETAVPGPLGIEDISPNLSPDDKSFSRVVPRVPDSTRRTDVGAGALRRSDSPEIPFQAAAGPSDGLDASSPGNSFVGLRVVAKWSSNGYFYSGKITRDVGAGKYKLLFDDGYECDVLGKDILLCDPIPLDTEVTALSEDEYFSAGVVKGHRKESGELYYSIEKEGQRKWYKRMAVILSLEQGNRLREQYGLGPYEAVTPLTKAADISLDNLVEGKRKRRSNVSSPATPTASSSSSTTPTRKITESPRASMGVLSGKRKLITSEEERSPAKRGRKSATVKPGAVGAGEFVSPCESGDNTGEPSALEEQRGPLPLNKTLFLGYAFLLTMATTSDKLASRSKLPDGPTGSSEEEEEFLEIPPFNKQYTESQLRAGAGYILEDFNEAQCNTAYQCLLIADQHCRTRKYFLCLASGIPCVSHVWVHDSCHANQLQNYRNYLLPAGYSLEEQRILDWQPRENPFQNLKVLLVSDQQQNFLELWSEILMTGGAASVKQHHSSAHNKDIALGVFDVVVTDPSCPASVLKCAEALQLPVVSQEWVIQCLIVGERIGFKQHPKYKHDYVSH
UniProt P46063: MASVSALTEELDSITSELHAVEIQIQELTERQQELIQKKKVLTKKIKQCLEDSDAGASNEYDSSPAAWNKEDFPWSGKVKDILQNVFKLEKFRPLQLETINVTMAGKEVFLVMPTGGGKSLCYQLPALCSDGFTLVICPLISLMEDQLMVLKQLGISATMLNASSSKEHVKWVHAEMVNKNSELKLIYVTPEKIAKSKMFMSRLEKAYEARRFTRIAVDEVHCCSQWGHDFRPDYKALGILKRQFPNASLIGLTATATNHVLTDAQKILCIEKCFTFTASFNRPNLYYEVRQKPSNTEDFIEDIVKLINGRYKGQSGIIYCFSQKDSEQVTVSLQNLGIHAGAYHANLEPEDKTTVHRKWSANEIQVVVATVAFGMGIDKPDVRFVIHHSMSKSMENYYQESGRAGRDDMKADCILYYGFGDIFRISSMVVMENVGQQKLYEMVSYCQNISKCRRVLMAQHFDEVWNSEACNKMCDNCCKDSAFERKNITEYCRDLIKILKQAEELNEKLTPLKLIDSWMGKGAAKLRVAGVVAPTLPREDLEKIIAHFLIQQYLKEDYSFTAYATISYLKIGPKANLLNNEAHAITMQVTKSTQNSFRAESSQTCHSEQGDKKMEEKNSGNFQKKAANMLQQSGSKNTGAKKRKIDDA
UniProt P39748: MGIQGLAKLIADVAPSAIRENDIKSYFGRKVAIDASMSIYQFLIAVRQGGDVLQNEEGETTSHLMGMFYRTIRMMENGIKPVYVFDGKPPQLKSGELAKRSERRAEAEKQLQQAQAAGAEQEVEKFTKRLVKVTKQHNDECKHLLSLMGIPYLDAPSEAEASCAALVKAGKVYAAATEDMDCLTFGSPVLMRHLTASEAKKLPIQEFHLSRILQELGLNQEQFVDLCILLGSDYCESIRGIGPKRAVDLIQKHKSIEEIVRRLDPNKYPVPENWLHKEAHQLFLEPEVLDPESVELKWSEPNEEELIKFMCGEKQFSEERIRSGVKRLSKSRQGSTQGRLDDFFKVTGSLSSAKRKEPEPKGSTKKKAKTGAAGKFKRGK
UniProt O94822: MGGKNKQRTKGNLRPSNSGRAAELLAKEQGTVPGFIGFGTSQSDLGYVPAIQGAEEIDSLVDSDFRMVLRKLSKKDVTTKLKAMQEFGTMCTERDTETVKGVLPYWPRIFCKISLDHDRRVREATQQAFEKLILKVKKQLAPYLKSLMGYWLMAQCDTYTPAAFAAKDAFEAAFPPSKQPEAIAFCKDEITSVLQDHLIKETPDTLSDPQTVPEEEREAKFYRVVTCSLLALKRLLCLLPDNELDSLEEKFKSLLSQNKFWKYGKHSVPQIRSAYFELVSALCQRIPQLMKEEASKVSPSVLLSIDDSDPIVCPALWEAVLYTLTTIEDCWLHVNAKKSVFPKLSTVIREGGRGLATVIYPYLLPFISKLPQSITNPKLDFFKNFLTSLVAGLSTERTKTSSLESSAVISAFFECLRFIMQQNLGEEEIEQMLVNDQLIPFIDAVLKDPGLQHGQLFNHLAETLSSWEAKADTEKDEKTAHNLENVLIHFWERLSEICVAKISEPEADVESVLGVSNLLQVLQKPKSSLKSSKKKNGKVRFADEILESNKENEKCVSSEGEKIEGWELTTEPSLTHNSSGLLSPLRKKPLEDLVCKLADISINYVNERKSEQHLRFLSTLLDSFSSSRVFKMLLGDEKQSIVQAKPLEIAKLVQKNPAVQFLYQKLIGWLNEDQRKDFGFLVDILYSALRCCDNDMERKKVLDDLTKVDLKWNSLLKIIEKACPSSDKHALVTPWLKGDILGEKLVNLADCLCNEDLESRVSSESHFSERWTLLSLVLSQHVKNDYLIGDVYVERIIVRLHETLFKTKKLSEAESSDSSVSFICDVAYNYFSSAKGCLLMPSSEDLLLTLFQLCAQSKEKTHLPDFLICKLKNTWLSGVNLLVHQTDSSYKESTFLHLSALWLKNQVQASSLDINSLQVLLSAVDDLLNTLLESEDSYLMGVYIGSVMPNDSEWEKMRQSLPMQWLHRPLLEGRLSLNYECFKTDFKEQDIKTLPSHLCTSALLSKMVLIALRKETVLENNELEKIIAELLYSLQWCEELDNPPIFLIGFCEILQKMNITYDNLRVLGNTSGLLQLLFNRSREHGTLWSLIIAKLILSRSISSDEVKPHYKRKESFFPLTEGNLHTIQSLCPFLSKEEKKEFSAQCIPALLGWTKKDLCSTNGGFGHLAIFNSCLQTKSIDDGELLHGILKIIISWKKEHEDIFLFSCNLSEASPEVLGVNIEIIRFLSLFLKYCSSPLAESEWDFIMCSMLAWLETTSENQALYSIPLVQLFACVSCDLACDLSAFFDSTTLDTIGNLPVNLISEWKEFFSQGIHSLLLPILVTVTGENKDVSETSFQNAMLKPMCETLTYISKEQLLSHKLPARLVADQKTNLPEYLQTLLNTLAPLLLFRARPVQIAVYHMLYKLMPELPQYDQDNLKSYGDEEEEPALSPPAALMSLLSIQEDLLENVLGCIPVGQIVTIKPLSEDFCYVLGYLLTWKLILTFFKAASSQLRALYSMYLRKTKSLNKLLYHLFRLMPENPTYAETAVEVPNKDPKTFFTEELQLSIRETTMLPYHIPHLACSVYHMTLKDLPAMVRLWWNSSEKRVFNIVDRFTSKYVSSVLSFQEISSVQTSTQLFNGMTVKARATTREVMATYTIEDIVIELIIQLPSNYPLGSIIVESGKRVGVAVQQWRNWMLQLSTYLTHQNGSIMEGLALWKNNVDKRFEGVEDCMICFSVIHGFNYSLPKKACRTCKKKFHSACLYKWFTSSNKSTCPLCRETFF

What all share (experiment): co-IP
Test [1] concerns the target T1, Myc-USP47 (human) (UniProt Q96K76).
T1 sequence: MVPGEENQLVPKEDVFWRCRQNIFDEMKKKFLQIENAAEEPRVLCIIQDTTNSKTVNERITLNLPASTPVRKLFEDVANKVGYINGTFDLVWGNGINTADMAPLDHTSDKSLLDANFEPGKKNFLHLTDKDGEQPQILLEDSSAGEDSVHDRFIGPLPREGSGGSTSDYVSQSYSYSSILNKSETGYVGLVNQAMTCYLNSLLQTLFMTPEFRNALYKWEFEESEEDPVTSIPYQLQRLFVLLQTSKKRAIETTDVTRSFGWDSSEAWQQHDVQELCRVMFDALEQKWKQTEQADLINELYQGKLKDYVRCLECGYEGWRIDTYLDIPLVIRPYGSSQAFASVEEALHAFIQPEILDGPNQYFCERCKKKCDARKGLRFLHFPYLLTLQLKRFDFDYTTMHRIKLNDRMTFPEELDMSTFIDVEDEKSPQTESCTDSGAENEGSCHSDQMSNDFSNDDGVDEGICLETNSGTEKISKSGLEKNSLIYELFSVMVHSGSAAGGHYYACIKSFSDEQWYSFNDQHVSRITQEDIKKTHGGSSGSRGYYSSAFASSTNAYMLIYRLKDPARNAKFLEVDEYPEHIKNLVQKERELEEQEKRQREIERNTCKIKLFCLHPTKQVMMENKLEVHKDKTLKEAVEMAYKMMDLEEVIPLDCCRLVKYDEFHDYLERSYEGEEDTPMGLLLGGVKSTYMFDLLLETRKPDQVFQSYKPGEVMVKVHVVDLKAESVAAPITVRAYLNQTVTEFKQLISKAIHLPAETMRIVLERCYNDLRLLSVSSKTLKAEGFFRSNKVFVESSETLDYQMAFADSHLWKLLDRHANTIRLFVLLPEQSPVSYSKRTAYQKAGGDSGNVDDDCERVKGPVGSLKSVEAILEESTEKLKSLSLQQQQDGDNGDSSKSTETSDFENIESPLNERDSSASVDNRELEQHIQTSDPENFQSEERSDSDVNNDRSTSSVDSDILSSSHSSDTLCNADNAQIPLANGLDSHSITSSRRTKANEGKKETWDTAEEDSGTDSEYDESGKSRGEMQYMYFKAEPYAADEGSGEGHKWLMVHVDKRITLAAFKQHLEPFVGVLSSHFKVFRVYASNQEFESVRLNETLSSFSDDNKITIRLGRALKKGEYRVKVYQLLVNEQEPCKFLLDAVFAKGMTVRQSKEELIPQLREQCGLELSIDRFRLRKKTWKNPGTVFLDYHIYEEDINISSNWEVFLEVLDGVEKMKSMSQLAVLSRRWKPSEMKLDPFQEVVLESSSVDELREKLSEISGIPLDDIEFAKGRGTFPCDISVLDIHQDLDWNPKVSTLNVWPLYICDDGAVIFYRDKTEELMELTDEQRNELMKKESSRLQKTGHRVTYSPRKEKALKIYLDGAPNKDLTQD

Test [2] concerns the target MYC-53BP1 (UniProt Q12888).
Test [3] deals with Myc-RECQL1 (UniProt P46063).
For test [4], the target named is Myc-RECQL1 (UniProt P46063). The source holds these as a separate data set.

Like-named read-outs stand apart in the source and are kept apart here. No constants are given. Whether binding was seen depends on the method and setting. In cells and extracts the contact can be indirect. Some binding calls cover weakened binding; strength is not graded here. For part of these data: Sequences can lack the tags named with a protein.

Consider “FEN1, endogenous (from UniProt P39748 1-380) (enzyme)”, for which, in test [1], the binding result is recorded as “binds”. “Listerin (LTN1) (from UniProt O94822 1-1766) (enzyme)”: the binding result in test [2] is on record as “binds”.

As for “RECQL1, endogenous (from UniProt P46063 1-649) (enzyme)”, the binding entry in test [1] is listed as “binds”. “TP53 Binding protein 1 (53BP1), endogenous (from UniProt Q12888 1-1972)”: the binding result in test [3], in test [1] and in test [4] was “binds” in each case.
